Results deposited as PubChem BioAssay AID652259 (Drosophila RNAi Screening Center, 2013).
The screen tested about 22,000 reagents; below is a random part of those that have a named target and a result. In the full data, 233 (1.1%) got an active call. 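Light values are raw, unnormalised plate reads; the ratio scores behind the reporter calls were not deposited.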 Entries without a mark were called inactive. A plus sign joins genes that one reagent is predicted to hit. Not given: the amount of reagent, the time to read-out, the dose of the treatment.

Assay: 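Genome-wide hunt for genes that control Wingless pathway activity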 (primary screen)
System: Drosophila clone 8 imaginal disc epithelial cells
Reagents: long dsRNA against Drosophila genes
Challenge: pathway stimulated by co-transfected Wingless expression plasmid
Measured: 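Dual luciferase reads per well after Wingless plasmid stimulation: reporter firefly light and Renilla control light; activity is firefly divided by Renilla, a ratio not deposited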
Reading the numbers: firefly reporter light: higher = more Wg reporter light, before normalisation; Renilla control light: higher = more transfected or surviving cells
Active means: 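Strong candidates differ from their plate mean by at least two out of four per-plate statistical tests; weak candidates meet just one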
Meaning of the calls: active = candidate regulator (raises or lowers reporter); inactive = not a candidate

| gene knocked down | amplicon | reporter change call, replicate 1 | firefly reporter light, replicate 1 | firefly reporter light, replicate 2 | Renilla control light, replicate 1 | Renilla control light, replicate 2 |
| --- | --- | --- | --- | --- | --- | --- |
| CG6769 | DRSC20006 | – | 4129 | 7196 | 1296 | 2396 |
| CG5111 | DRSC15717 | – | 17908 | – | 12835 | – |
| ORMDL | DRSC11737 | – | 14032 | – | 6834 | – |
| CG4907 | DRSC15673 | – | 20059 | – | 15328 | – |
| pyx | DRSC08510 | – | 7712 | – | 2749 | – |
| pyx | DRSC08511 | – | 5883 | – | 2118 | – |
| SLIRP2 | DRSC16363 | – | 15635 | – | 4224 | – |
| Ccm3 | DRSC15711 | – | 17507 | – | 3493 | – |
| Hex-t2 | DRSC22517 | – | 8.03e5 | 7.79e5 | 1.32e5 | 1.50e5 |
| CG8708 | DRSC07240 | – | 4698 | – | 1719 | – |
| atk | DRSC11418 | – | 3701 | – | 1268 | – |
| atk | DRSC11769 | – | 11008 | – | 3004 | – |
| Gbp1 | DRSC06592 | – | 7520 | – | 2572 | – |
| Efr | DRSC18322 | – | 19500 | – | 9910 | – |
| Pex10 | DRSC08599 | – | 24803 | – | 7035 | – |
| Pex10 | DRSC22021 | – | 3.99e5 | 4.68e5 | 1.46e5 | 2.09e5 |
| CG3587 | DRSC18541 | – | 4164 | 8632 | 1571 | 2674 |
| CG3587 | DRSC21966 | – | 4.54e5 | 5.36e5 | 1.77e5 | 2.24e5 |
| TotX | DRSC22206 | – | 6.88e5 | 7.02e5 | 3.22e5 | 3.28e5 |
| CG14834 | DRSC10204 | – | 1398 | 3963 | 962 | 2151 |
| CG4364 | DRSC02742 | – | 5111 | – | 1659 | – |
| Asciz | DRSC08421 | – | 4662 | – | 1888 | – |
| Mocs2A + Mocs2B | DRSC13697 | – | 2235 | – | 336 | – |
| Mocs2A + Mocs2B | DRSC14219 | – | 23059 | – | 20043 | – |
| snoRNA:Me28S-C3420b + RpS11 | DRSC07396 | Wg reporter activity lowered | 8082 | – | 3644 | – |
| Sf3a1 | DRSC15166 | – | 4293 | 5938 | 1034 | 1733 |
| Ubc7 | DRSC20299 | – | 19265 | – | 7880 | – |
| Tom40 | DRSC18796 | – | 15492 | – | 7849 | – |
| CG7985 | DRSC14128 | – | 3315 | 8880 | 1735 | 2368 |
| Rbcn-3B | DRSC18574 | – | 20486 | – | 14407 | – |
| Lrr47 | DRSC03365 | – | 12475 | – | 1797 | – |
| Cpr65Ec | DRSC11025 | – | 1770 | 7941 | 1549 | 2548 |
| CG12991 | DRSC19511 | – | 26704 | – | 10685 | – |
| or | DRSC04329 | – | 2891 | 6619 | 756 | 2648 |
| CG13010 | DRSC19529 | – | 24232 | – | 11296 | – |
| CG13097 | DRSC02199 | – | 7562 | – | 2512 | – |
| CG9380 | DRSC04549 | – | 3094 | 7179 | 614 | 2954 |
| Txl | DRSC11310 | – | 1990 | 7728 | 1305 | 2314 |
| CG5131 | DRSC02817 | – | 3047 | 8450 | 1296 | 3408 |
| CG3589 | DRSC04392 | – | 20752 | – | 7348 | – |
| RNASEK | DRSC21641 | – | 3.85e5 | 3.09e5 | 1.81e5 | 1.30e5 |
| CG30031 + deltaTry + CG30025 + 1 more | DRSC21262 | – | 16005 | – | 6864 | – |
| CG15263 | DRSC01974 | – | 4930 | 8444 | 1442 | 4007 |
| CG14234 | DRSC19317 | – | 4913 | – | 1949 | – |
| CG14234 | DRSC19589 | – | 9883 | – | 8155 | – |
| wdb | DRSC14163 | – | 7163 | – | 2356 | – |
| yata | DRSC15408 | – | 8897 | – | 3229 | – |
| CG15506 | DRSC15047 | – | 6768 | – | 2808 | – |
| CG2641 | DRSC15441 | – | 11074 | – | 2296 | – |
| CG12994 | DRSC19192 | – | 5779 | – | 1125 | – |
| CG12994 | DRSC19514 | – | 20072 | – | 9106 | – |
| fliI | DRSC20578 | – | 3117 | – | 1235 | – |
| kn | DRSC05505 | – | 21504 | – | 17971 | – |
| kn | DRSC05507 | – | 19789 | – | 15677 | – |
| kn | DRSC06196 | – | 5842 | – | 2071 | – |
| kn | DRSC07637 | – | 6928 | – | 2769 | – |
| kn | DRSC21533 | – | 7.37e5 | 6.87e5 | 3.11e5 | 2.97e5 |
| gce | DRSC19613 | – | 20341 | – | 12732 | – |
| gce | DRSC19974 | – | 11315 | – | 7975 | – |
| mei-P26 | DRSC17735 | Wg reporter activity raised (active) | 5100 | 8405 | 131 | 369 |
| Nf-YA | DRSC10385 | Wg reporter activity raised (active) | 7094 | – | 884 | – |
| RhoGAP71E | DRSC10232 | – | 4012 | – | 1685 | – |
| RhoGAP71E | DRSC10837 | – | 5928 | – | 1337 | – |
| RhoGAP71E | DRSC10838 | – | 13696 | – | 3072 | – |
| CG16853 | DRSC01877 | – | 2493 | 4715 | 917 | 1724 |
| dao | DRSC01960 | – | 2904 | 5537 | 1205 | 3127 |
| CG14913 | DRSC02397 | – | 3192 | 9130 | 822 | 3479 |
| CG14647 | DRSC12233 | – | 10660 | – | 4480 | – |
| CG14647 | DRSC22497 | – | 4.61e5 | 3.74e5 | 2.06e5 | 104 |
| Trpml + CG42638 | DRSC11032 | – | 2771 | – | 1936 | – |
| CG7099 | DRSC03006 | – | 8545 | – | 3692 | – |
| CG13806 | DRSC08341 | – | 5184 | – | 1825 | – |
| RpS14a | DRSC18710 | – | 13985 | – | 8780 | – |
